{
  "source": "PubChem BioAssay AID504467",
  "about": "(National Center for Advancing Translational Sciences (NCATS), 2011)",
  "note": "Among all 330,000 compounds or so, about 7,700 (2.3%) were called active. A call without a number means that no potency is given here. The inconclusive results got no clear call from the source; some entries with a clear call stand among them for comparison. Calls come from the whole dose curve; as a rule, active = well fitted inhibition curve with a large enough effect; inconclusive = small, poorly fitted or top-dose-only effect, or effect the other way; inactive = flat fitted curve, though single readings scatter. A potency beside an inconclusive call is a rough fit, not a confirmed value.",
  "data": [
    {"experiment": "qHTS screen for small molecules that inhibit ELG1-dependent DNA repair in human embryonic kidney (HEK293T) cells expressing luciferase-tagged ELG1; note: nearly all actives have a fitted effect of over 55% in size; note: potency is the fitted concentration of half-maximal effect", "details": "HEK293T ELG1-luciferase reporter, luminescence, 16 h, DNA damage induced by 5-fluorouridine; series mostly up to 46.1 µM", "method_in_brief": "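HEK293T cells expressing luciferase-tagged ELG1 (2,000/well) received 5-Fluorouridine plus compound or DMSO for 16 hr at 37 °C. Luciferase was read by ONE-Glo luminescence after 30 min at room temperature.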", "values": [
      {"molecule": "CC(=O)c1ccc(NC(=O)C2CCCN(c3ncnc4c3nc3n4CCCCC3)C2)cc1", "note": "(stereo unspecified)", "Potency": "inactive"},
      {"molecule": "C/C(=N\\Nc1cc(C)nc(-c2ccccc2O)n1)c1ccccc1", "Potency": "inconclusive: 2.59 µM [inhibitor, partial curve, poor fit]"},
      {"molecule": "O=C(NCCCN1CCCC1=O)Nc1ccc(F)c(Cl)c1", "Potency": "inconclusive: 22.4 µM [activator, single point]"},
      {"molecule": "O=C(O)c1cc(C2CC2)nn1-c1ccccc1", "Potency": "inactive"},
      {"molecule": "COc1ccccc1NC(=S)NC1CCC(CC2CCC(NC(=S)Nc3ccccc3OC)CC2)CC1", "note": "(stereo unspecified)", "Potency": "inactive"},
      {"molecule": "COc1ccc(OC)c(Nc2nc(N)c([N+](=O)[O-])c(N3CCOCC3)n2)c1", "Potency": "inconclusive: 18.3 µM [inhibitor, partial curve]"},
      {"molecule": "O=C(CN1c2cccc3cccc(c23)S1(=O)=O)Nc1ccccc1F", "Potency": "inconclusive: 18.3 µM [inhibitor, partial curve, poor fit]"},
      {"molecule": "COc1ccc(NS(=O)(=O)c2cc(Br)cc3c2N(C(C)=O)CC3)cc1", "Potency": "inactive"},
      {"molecule": "O=C(O)c1ccc(N2CCCCCC2)c(N2C(=O)c3ccccc3C2=O)c1", "Potency": "inactive"},
      {"molecule": "O=S(=O)(N(Cc1ccccc1)[C@H](CO)Cc1ccccc1)N(Cc1ccccc1)[C@H](CO)Cc1ccccc1", "Potency": "inactive"},
      {"molecule": "CN(c1ccc(F)cc1)S(=O)(=O)c1ccc(Cl)c(C(=O)Nc2ccc3c(c2)CCC3)c1", "Potency": "inconclusive: 9.2 µM [inhibitor, partial curve]"},
      {"molecule": "CCC1Oc2ccc(C)cc2N(CC(=O)NCc2ccco2)C1=O", "note": "(stereo unspecified)", "Potency": "inconclusive: 29.1 µM [inhibitor, single point]"},
      {"molecule": "O=C(NCCCCCCNC(=O)c1cncc(O)c1)c1cncc(O)c1", "Potency": "inactive"},
      {"molecule": "CC(C)(Oc1ccc(Cl)cc1)C(=O)O/N=C(\\N)c1ccncc1", "Potency": "inactive"},
      {"molecule": "Cc1cccc(N2CCN(C(=O)COc3cc(=O)n(C)c4ccccc34)CC2)c1C", "Potency": "inconclusive: 18.4 µM [inhibitor, partial curve]"},
      {"molecule": "CO/N=C/C(=N\\Nc1ccccc1)C(=O)c1ccccc1", "Potency": "inactive"},
      {"molecule": "O=S(=O)(c1ccc2c(c1)CCCC2)N1CCNCC1", "Potency": "inactive"},
      {"molecule": "Cc1cccc(NC(=S)N(CCN2CCOCC2)Cc2ccccc2F)c1", "Potency": "inactive"},
      {"molecule": "O=C(NNC(=S)NC(=O)c1ccc(Br)cc1)c1cccc([N+](=O)[O-])c1", "Potency": "inconclusive: 23.1 µM [inhibitor, partial curve]"},
      {"molecule": "COc1ccc(-c2nc3cc(NC(=O)Cc4ccc(OC)c(OC)c4)ccc3o2)cc1", "Potency": "inconclusive: 6.51 µM [inhibitor, single point]"},
      {"molecule": "Cc1cccc(C(=O)N2CCN(c3ccc([N+](=O)[O-])c(N4CCOCC4)c3)CC2)c1", "Potency": "inconclusive: 0.461 µM [inhibitor, partial curve, poor fit]"}
    ]}
  ]
}
